Here are results for 8 molecules from paper PMC8033514.

Numbering of substitutions follows the chain as printed. Numbers in names are those of the source. No constants are given. Whether binding was seen depends on the method and setting. Binding seen in cells or lysates may run through a third protein. Some results given as binding are weak or reduced against the parent protein; the word gives no strength. Where a sequence is shown, tags or fusion partners need not be part of it.

The chains are these.
T1: Flag-LDB2 T83N (human) (UniProt O43679)
T1 sequence: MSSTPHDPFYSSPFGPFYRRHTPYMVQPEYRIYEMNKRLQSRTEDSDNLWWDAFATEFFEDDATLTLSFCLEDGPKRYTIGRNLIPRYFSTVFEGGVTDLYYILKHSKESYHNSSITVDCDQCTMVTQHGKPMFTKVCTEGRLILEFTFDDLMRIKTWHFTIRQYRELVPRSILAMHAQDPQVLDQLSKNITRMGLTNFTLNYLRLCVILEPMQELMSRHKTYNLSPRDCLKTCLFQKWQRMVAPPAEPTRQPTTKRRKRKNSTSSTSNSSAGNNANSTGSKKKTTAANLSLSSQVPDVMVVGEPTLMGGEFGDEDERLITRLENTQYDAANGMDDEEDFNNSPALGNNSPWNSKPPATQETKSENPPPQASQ

T2: Flag-LDB2 (wild type) (human) (UniProt O43679)
T2 sequence: T1 sequence with N83T

T3: Flag-LDB2 P170L (human) (UniProt O43679)
T3 sequence: T1 sequence with N83T, P170L

B1: Flag-LDB2 (wild type) (protein, UniProt O43679 1-373)
chain: T1 sequence with N83T
B2: HA-RLIM (wild type) (enzyme, UniProt Q9NVW2 1-624)
chain: MENSDSNDKGSGDQSAAQRRSQMDRLDREEAFYQFVNNLSEEDYRLMRDNNLLGTPGESTEEELLRRLQQIKEGPPPQNSDENRGGDSSDDVSNGDSIIDWLNSVRQTGNTTRSGQRGNQSWRAVSRTNPNSGDFRFSLEINVNRNNGSQNSENENEPSARRSSGENVENNSQRQVENPRSESTSARPSRSERNSTEALTEVPPTRGQRRARSRSPDHRRTRARAERSRSPLHPMSEIPRRSHHSISSQTFEHPLVNETEGSSRTRHHVTLRQQISGPELLSRGLFAASGTRNASQGAGSSDTAASGESTGSGQRPPTIVLDLQVRRVRPGEYRQRDSIASRTRSRSQTPNNTVTYESERGGFRRTFSRSERAGVRTYVSTIRIPIRRILNTGLSETTSVAIQTMLRQIMTGFGELSYFMYSDSDSEPTGSVSNRNMERAESRSGRGGSGGGSSSGSSSSSSSSSSSSSSSSSSSSPSSSSGGESSETSSDLFEGSNEGSSSSGSSGARREGRHRAPVTFDESGSLPFLSLAQFFLLNEDDDDQPRGLTKEQIDNLAMRSFGENDALKTCSVCITEYTEGNKLRKLPCSHEYHVHCIDRWLSENSTCPICRRAVLASGNRESVV
B3: HA-LMO3 (protein, UniProt Q8TAP4 1-145)
chain: MLSVQPDTKPKGCAGCNRKIKDRYLLKALDKYWHEDCLKCACCDCRLGEVGSTLYTKANLILCRRDYLRLFGVTGNCAACSKLIPAFEMVMRAKDNVYHLDCFACQLCNQRFCVGDKFFLKNNMILCQTDYEEGLMKEGYAPQVR
B4: HA-LHX2 (protein, UniProt P50458 1-406)
chain: MLFHSLSGPEVHGVIDEMDRRAKSEAPAISSAIDRGDTETTMPSISSDRAALCAGCGGKISDRYYLLAVDKQWHMRCLKCCECKLNLESELTCFSKDGSIYCKEDYYRRFSVQRCARCHLGISASEMVMRARDLVYHLNCFTCTTCNKMLTTGDHFGMKDSLVYCRLHFEALLQGEYPAHFNHADVAAAAAAAAAAKSAGLGAAGANPLGLPYYNGVGTVQKGRPRKRKSPGPGADLAAYNAALSCNENDAEHLDRDQPYPSSQKTKRMRTSFKHHQLRTMKSYFAINHNPDAKDLKQLAQKTGLTKRVLQVWFQNARAKFRRNLLRQENTGVDKSTDAALQTGTPSGPASELSNASLSPSSTPTTLTDLTSPTLPTVTSVLTSVPGNLEGHEPHSPSQTTLTNLF
B5: HA-RLIM S455F (enzyme, UniProt Q9NVW2 1-624)
chain: B2 chain with S455F
B6: HA-SSBP2 (protein, UniProt P81877 1-361)
chain: MYGKGKSNSSAVPSDSQAREKLALYVYEYLLHVGAQKSAQTFLSEIRWEKNITLGEPPGFLHSWWCVFWDLYCAAPERRETCEHSSEAKAFHDYSAAAAPSPVLGNIPPGDGMPVGPVPPGFFQPFMSPRYPGGPRPPLRIPNQALGGVPGSQPLLPSGMDPTRQQGHPNMGGPMQRMTPPRGMVPLGPQNYGGAMRPPLNALGGPGMPGMNMGPGGGRPWPNPTNANSIPYSSASPGNYVGPPGGGGPPGTPIMPSPADSTNSGDNMYTLMNAVPPGPNRPNFPMGPGSDGPMGGLGGMESHHMNGSLGSGDMDSISKNSPNNMSLSNQPGTPRDDGEMGGNFLNPFQSESYSPSMTMSV
B7: HA-SSBP4 (protein, UniProt Q9BWG4 1-385)
chain: MYAKGGKGSAVPSDSQAREKLALYVYEYLLHIGAQKSAQTFLSEIRWEKNITLGEPPGFLHSWWCVFWDLYCAAPDRREACEHSGEAKAFQDYSAAAAPSPVMGSMAPGDTMAAGSMAAGFFQGPPGSQPSPHNPNAPMMGPHGQPFMSPRFPGGPRPTLRMPSQPPAGLPGSQPLLPGAMEPSPRAQGHPSMGGPMQRVTPPRGMASVGPQSYGGGMRPPPNSLAGPGLPAMNMGPGVRGPWASPSGNSIPYSSSSPGSYTGPPGGGGPPGTPIMPSPGDSTNSSENMYTIMNPIGQGAGRANFPLGPGPEGPMAAMSAMEPHHVNGSLGSGDMDGLPKSSPGAVAGLSNAPGTPRDDGEMAAAGTFLHPFPSESYSPGMTMSV
B8: HA-SSBP3 (protein, UniProt Q9BWW4 1-388)
chain: MFAKGKGSAVPSDGQAREKLALYVYEYLLHVGAQKSAQTFLSEIRWEKNITLGEPPGFLHSWWCVFWDLYCAAPERRDTCEHSSEAKAFHDYSAAAAPSPVLGNIPPNDGMPGGPIPPGFFQGPPGSQPSPHAQPPPHNPSSMMGPHSQPFMSPRYAGGPRPPIRMGNQPPGGVPGTQPLLPNSMDPTRQQGHPNMGGSMQRMNPPRGMGPMGPGPQNYGSGMRPPPNSLGPAMPGINMGPGAGRPWPNPNSANSIPYSSSSPGTYVGPPGGGGPPGTPIMPSPADSTNSSDNIYTMINPVPPGGSRSNFPMGPGSDGPMGGMGGMEPHHMNGSLGSGDIDGLPKNSPNNISGISNPPGTPRDDGELGGNFLHSFQNDNYSPSMTMSV

The target of the first assay is T1, Flag-LDB2 T83N (human). In words: co-IP; HEK293T co-transfected with FLAG and HA constructs, 48 h; lysis buffer 25 mM Tris-HCl pH 7.8, 125 mM NaCl, 1% Triton X-100, 0.5 mM EDTA; Flag-LDB2 captured with anti-Flag antibody on Protein G-Sepharose, 3 h; Western blot with anti-Flag and anti-HA.
For the molecule B1, the binding entry was “binds”.

Regarding B2, the binding result is “binds”.

As to B3, the binding result is reported as “binds”.

Take B4: the binding entry is recorded as “binds”.

In a further assay the target is T2, Flag-LDB2 (wild type) (human). The description is as above.
As to B1, the binding result was “binds”.

For B2, the binding entry is “binds”.

As to B5, the binding result was “binds”.

For B3, the binding result is listed as “binds”.

For B6, the binding entry is recorded as “binds”.

On to B7, for which the binding entry was “binds”.

For the molecule B4, the binding entry was “binds”.

With B8, the binding result is “binds”.

For a further assay, the target named is T3, Flag-LDB2 P170L (human). The description is as above.
Consider B1, for which the binding entry is listed as “binds”.

For the molecule B2, the binding result was “binds”.

As to B3, the binding entry is “binds”.

For B4, the binding entry is on record as “binds”.
